We go through one sequence from patent US20250174299 (published 2025).

Where a sequence shows no end group, the ends are not given.

A short description of this data set: peptide made by a vendor. Conditions: whole synthesis.

Turning to CCTSPGGDQFCRSRW TQWNLVIWCQCCVR, the “purity (crude or final not stated)” value is 26%.
